Binding data for 5 molecules are collected here from article PMC8464784.

The target of assay [1] is T1, FLAG-HD2C (Arabidopsis thaliana) (UniProt Q9LZR5).
T1 sequence: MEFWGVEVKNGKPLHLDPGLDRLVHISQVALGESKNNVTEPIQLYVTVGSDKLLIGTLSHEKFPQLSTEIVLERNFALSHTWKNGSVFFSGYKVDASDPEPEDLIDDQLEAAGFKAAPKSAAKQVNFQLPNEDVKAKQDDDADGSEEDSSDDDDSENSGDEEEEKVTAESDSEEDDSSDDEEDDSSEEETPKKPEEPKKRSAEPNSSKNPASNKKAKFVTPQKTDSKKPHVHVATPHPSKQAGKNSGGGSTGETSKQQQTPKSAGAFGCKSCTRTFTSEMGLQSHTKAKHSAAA
Put plainly: co-IP; FLAG-HD2C or FLAG-GFP co-expressed with MYC-P6 in N. benthamiana; anti-FLAG M2 affinity gel, 2 h at 4 C; 50 mM Tris-HCl pH 7.5, 150 mM NaCl, 0.5% Triton X-100.

Assay [2] has as its target T2, GST-HD2C (Arabidopsis thaliana) (UniProt Q9LZR5).
T2 sequence: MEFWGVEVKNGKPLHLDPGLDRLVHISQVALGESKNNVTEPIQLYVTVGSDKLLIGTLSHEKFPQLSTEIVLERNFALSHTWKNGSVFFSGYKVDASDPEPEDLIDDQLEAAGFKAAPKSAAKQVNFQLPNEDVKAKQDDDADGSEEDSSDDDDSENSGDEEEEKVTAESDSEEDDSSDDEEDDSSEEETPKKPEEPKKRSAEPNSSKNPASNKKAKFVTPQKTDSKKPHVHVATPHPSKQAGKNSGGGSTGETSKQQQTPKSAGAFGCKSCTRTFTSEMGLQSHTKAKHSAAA
The assay can be described thus: pull-down; purified MBP-P6 (2 ug) mixed with GST-HD2C (2 ug) or GST in PBS, 1% Triton X-100, 2 h at 4 C; GST beads; western blot with anti-MBP; both purified. Background: A western blot detects proteins with antibodies after separation by electrophoresis.

Assay [3] has as its target T1, FLAG-HD2C (Arabidopsis thaliana). Put plainly: co-IP; FLAG-HD2C and MYC-HDA6 co-expressed with YFP-P6 or YFP in the same N. benthamiana leaf; anti-FLAG M2 affinity gel; blots with anti-FLAG, anti-MYC, anti-GFP.
For assay [4], the target named is T3, HD2C-cEYFP (Arabidopsis thaliana) (UniProt Q9LZR5).
T3 sequence: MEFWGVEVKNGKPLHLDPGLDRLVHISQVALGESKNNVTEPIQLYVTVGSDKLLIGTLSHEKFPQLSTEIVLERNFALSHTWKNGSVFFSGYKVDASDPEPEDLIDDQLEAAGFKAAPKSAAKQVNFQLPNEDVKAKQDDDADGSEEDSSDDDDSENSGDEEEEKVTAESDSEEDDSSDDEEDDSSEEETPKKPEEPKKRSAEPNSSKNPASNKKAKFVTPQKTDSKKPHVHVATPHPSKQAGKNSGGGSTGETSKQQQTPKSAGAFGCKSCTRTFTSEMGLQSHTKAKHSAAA
Put plainly: split reporter; BiFC with split EYFP, transient co-expression in N. benthamiana leaves, confocal microscopy after 2 days.

Assay [5] has as its target BD-P6 (Cauliflower mosaic virus (strain CM1841)). Put plainly: two-hybrid; P6 in pGBKT7 and HD2C in pGADT7, AH109 yeast; growth on SD/-Leu/-Trp/-His with 5 mM 3-Amino-1,2,4-triazole.

Results are given in words; binding and its absence hold for the method and conditions named. Binding calls can cover weak binding; strength is not graded here. For some assays here: Where a sequence is shown, tags or fusion partners need not be part of it. For some assays here: Binding seen in cells or lysates may run through a third protein.

On to “MYC-P6 (Cauliflower mosaic virus (strain CM1841))”, for which, in assay [1], the binding result was “binds”.

As for “MBP-P6 (Cauliflower mosaic virus (strain CM1841))”, in assay [2], the binding result is given as “binds”.

For the molecule “YFP-P6 (Cauliflower mosaic virus (strain CM1841))”, the binding result in assay [3] was “binds”.

Regarding “nEYFP-P6 (Cauliflower mosaic virus (strain CM1841))”, the binding result in assay [4] is “binds”.

B1: AD-HD2C (protein, UniProt Q9LZR5 1-294)
chain: MEFWGVEVKNGKPLHLDPGLDRLVHISQVALGESKNNVTEPIQLYVTVGSDKLLIGTLSHEKFPQLSTEIVLERNFALSHTWKNGSVFFSGYKVDASDPEPEDLIDDQLEAAGFKAAPKSAAKQVNFQLPNEDVKAKQDDDADGSEEDSSDDDDSENSGDEEEEKVTAESDSEEDDSSDDEEDDSSEEETPKKPEEPKKRSAEPNSSKNPASNKKAKFVTPQKTDSKKPHVHVATPHPSKQAGKNSGGGSTGETSKQQQTPKSAGAFGCKSCTRTFTSEMGLQSHTKAKHSAAA
For the molecule B1, the binding entry in assay [5] is recorded as “binds”.
